Measured values as given in PMC3184163, “The Amino-Terminus of Nitric Oxide Sensitive Guanylyl Cyclase α1 Does Not Affect Dimerization but Influences Subcellular Localization” (PLoS ONE, 2011).
No constants are given. Whether binding was seen depends on the method and setting. Binding seen in cells or lysates may run through a third protein. Some entries that bind do so weakly or less than the wild type. For part of these data: Tags and fused reporters may be left off the sequences shown.

Protein sequences, listed by entry. Tags and fused reporters are not part of them.
UniProt P20595: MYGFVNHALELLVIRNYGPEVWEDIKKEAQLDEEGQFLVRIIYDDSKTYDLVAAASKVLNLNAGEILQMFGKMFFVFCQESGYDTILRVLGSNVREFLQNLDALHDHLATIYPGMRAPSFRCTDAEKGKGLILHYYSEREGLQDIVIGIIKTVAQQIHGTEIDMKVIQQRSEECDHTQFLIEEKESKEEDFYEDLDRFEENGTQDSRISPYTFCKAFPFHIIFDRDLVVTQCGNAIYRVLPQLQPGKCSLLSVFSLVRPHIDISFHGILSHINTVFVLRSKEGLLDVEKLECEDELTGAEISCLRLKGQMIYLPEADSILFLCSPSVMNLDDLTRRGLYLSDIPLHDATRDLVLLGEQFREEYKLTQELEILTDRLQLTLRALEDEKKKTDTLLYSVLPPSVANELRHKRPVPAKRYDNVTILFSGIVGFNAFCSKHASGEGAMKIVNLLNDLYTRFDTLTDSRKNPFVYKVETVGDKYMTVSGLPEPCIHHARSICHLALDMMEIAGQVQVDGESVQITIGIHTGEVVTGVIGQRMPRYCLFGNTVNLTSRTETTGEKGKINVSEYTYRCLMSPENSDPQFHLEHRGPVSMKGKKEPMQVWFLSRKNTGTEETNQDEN

Columns and labels:
[1] = target: nitric oxide sensitive guanylyl cyclase β1-subunit with carboxy-terminal Strep Tag II (UniProt P20595); experiment: pull-down; co-purification: α1 variant expressed with carboxy-terminally Strep Tag II tagged β1 in Sf-9; cytosolic fraction applied to Strep-Tactin Superflow resin; buffer W 100 mM Tris-HCl, 1 M NaCl, 1 mM EDTA, 1 mM benzamidine, 10 mM DTT, pH 8.0; eluted with 2.5 mM D-desthiobiotin; on ice or at 4°C; SDS-PAGE, Coomassie staining, densitometry; cells also cultured without supplement, with hemin (4 mg/l), or with hemin and lipid supplement
[2] = target: nitric oxide sensitive guanylyl cyclase β1-subunit with carboxy-terminal Strep Tag II (UniProt P20595); experiment: pull-down; same co-purification on Strep-Tactin through β1-S, quantified from Western blots instead of Coomassie gels (data not shown)
[3] = target: rat β1-subunit, carboxy-terminally tagged with ECFP (rat) (UniProt P20595); experiment: FRET or BRET; FLIM-FRET in intact HEK-293 cells, 37°C, 48 h post transfection; ECFP donor and EYFP acceptor carboxy-terminal on the α1 variants and β1, or vice versa; negative control ECFP donor alone; 405 nm pulsed laser
[4] = target: rat β1-subunit, carboxy-terminally tagged with EYFP (rat) (UniProt P20595); experiment: as above

Binder	binding [1]	binding [2]	binding [3]	binding [4]
nitric oxide sensitive guanylyl cyclase α1-subunit, wild type (human) (natural protein, UniProt Q02108-1 1-690, looked up, predicted 77.6 kDa; also called α1WT; α1 full-length; source: Sf-9, recombinant baculovirus, cytosolic fraction; co-purified with β1-S on Strep-Tactin) MFCTKLKDLKITGECPFSLLAPGQVPNESSEEAAGSSESCKATVPICQDIPEKNIQESLPQRKTSRSRVYLHTLAESICKLIFPEFERLNVALQRTLAKHKIKESRKSLEREDFEKTIAEQAVAAGVPVEVIKESLGEEVFKICYEEDENILGVVGGTLKDFLNSFSTLLKQSSHCQEAGKRGRLEDASILCLDKEDDFLHVYYFFPKRTTSLILPGIIKAAAHVLYETEVEVSLMPPCFHNDCSEFVNQPYLLYSVHMKSTKPSLSPSKPQSSLVIPTSLFCKTFPFHFMFDKDMTILQFGNGIRRLMNRRDFQGKPNFEEYFEILTPKINQTFSGIMTMLNMQFVVRVRRWDNSVKKSSRVMDLKGQMIYIVESSAILFLGSPCVDRLEDFTGRGLYLSDIPIHNALRDVVLIGEQARAQDGLKKRLGKLKATLEQAHQALEEEKKKTVDLLCSIFPCEVAQQLWQGQVVQAKKFSNVTMLFSDIVGFTAICSQCSPLQVITMLNALYTRFDQQCGELDVYKVETIGDAYCVAGGLHKESDTHAVQIALMALKMMELSDEVMSPHGEPIKMRIGLHSGSVFAGVVGVKMPRYCLFGNNVTLANKFESCSVPRKINVSPTTYRLLKDCPGFVFTPRSREELPPNFPSEIPGICHFLDAYQQGTNSKPCFQKKDVEDGNANFLGKASGID	binds	binds	–	–
rat C-α1 (rat α1ΔN258), carboxy-terminally tagged with EYFP (domain or fragment, UniProt P19686 259-690) MKSTKPSLSPGKPQSSLVIPTSLFCKTFPFHFMLDRDLAILQLGNGIRRLVNKRDFQGKPNFEEFFEILTPKINQTFSGIMTMLNMQFVIRVRRWDNLVKKSSRVMDLKGQMIYIVESSAILFLGSPCVDRLEDFTGRGLYLSDIPIHNALRDVVLIGEQARAQDGLKKRLGKLKATLEHAHQALEEEKKKTVDLLCSIFPSEVAQQLWQGQIVQAKKFNEVTMLFSDIVGFTAICSQCSPLQVITMLNALYTRFDQQCGELDVYKVETIGDAYCVAGGLHRESDTHAVQIALMALKMMELSNEVMSPHGEPIKMRIGLHSGSVFAGVVGVKMPRYCLFGNNVTLANKFESCSVPRKINVSPTTYRLLKDCPGFVFTPRSREELPPNFPSDIPGICHFLDAYQHQGPNSKPWFQQKDAEDGNANFLGKASGVD	–	–	binds	–
rat C-α1 (rat α1ΔN258), carboxy-terminally tagged with ECFP (domain or fragment, UniProt P19686 259-690) MKSTKPSLSPGKPQSSLVIPTSLFCKTFPFHFMLDRDLAILQLGNGIRRLVNKRDFQGKPNFEEFFEILTPKINQTFSGIMTMLNMQFVIRVRRWDNLVKKSSRVMDLKGQMIYIVESSAILFLGSPCVDRLEDFTGRGLYLSDIPIHNALRDVVLIGEQARAQDGLKKRLGKLKATLEHAHQALEEEKKKTVDLLCSIFPSEVAQQLWQGQIVQAKKFNEVTMLFSDIVGFTAICSQCSPLQVITMLNALYTRFDQQCGELDVYKVETIGDAYCVAGGLHRESDTHAVQIALMALKMMELSNEVMSPHGEPIKMRIGLHSGSVFAGVVGVKMPRYCLFGNNVTLANKFESCSVPRKINVSPTTYRLLKDCPGFVFTPRSREELPPNFPSDIPGICHFLDAYQHQGPNSKPWFQQKDAEDGNANFLGKASGVD	–	–	–	binds
C-α1 splice variant of the nitric oxide sensitive guanylyl cyclase α1-subunit (human α1ΔN259) (domain or fragment, UniProt Q02108-1 259-690, looked up, α1-subunit of nitric oxide sensitive guanylyl cyclase, human, amino-terminal deletion α1ΔN259; predicted 48 kDa; The name ΔN259 could also be read as loss of the first 259 residues; also called C-α1-splice form; source: Sf-9, recombinant baculovirus, cytosolic fraction; co-purified with β1-S on Strep-Tactin) MKSTKPSLSPSKPQSSLVIPTSLFCKTFPFHFMFDKDMTILQFGNGIRRLMNRRDFQGKPNFEEYFEILTPKINQTFSGIMTMLNMQFVVRVRRWDNSVKKSSRVMDLKGQMIYIVESSAILFLGSPCVDRLEDFTGRGLYLSDIPIHNALRDVVLIGEQARAQDGLKKRLGKLKATLEQAHQALEEEKKKTVDLLCSIFPCEVAQQLWQGQVVQAKKFSNVTMLFSDIVGFTAICSQCSPLQVITMLNALYTRFDQQCGELDVYKVETIGDAYCVAGGLHKESDTHAVQIALMALKMMELSDEVMSPHGEPIKMRIGLHSGSVFAGVVGVKMPRYCLFGNNVTLANKFESCSVPRKINVSPTTYRLLKDCPGFVFTPRSREELPPNFPSEIPGICHFLDAYQQGTNSKPCFQKKDVEDGNANFLGKASGID	binds	binds	–	–
